# According to patent publication US10502741B2 (Helmholtz Zentrum München Deutsches Forschungszentrum für …, priority 2014, dated 2019):
# Experiments:
# [1] = Fmoc solid-phase peptide synthesis; 2-chlorotrityl chloride resin (Merck) for probe 2; arginine AOMK building block bound to resin through a hydrazone linka; settings: whole synthesis, based on Fmoc-loading of resin 3
# [2] = general procedure: Fmoc solid-phase peptide synthesis; 2-chlorotrityl chloride resin (Merck) for probe 2; arginine AOMK building block bound to resin through a hydrazone linka; settings: whole synthesis, based on Fmoc-loading of resin 3
Substance,isolated yield [1] [%],isolated yield [2] [%]
"(BODIPY-FL)-LRSR-AOMK (BODIPY-FL N-terminal label, AOMK warhead)",3.5,–
Ac-Lys(biotin)-LRSR-AOMK,–,1.9
"FITC-LRSR-AOMK (FITC N-terminal label, AOMK warhead)",7.6,–
